The list does not hold the whole screen: it is rich in T/C values a quarter to a half above the control, in often repeated tests (any T/C) and in doses without a T/C. Further doses and runs are listed elsewhere. T/C gives the treated animals as a percentage of the vehicle group. Some entries give survivors of the animals treated and no T/C: the source holds a T/C of zero for them, seemingly a mark for toxic or unscored doses. Some doses without a T/C left all or most animals alive at the check, yet need not have been tolerated: the source hardly ever lists a survival T/C far under the control, and the zero likely stands for such cases as well. Counts of survivors are from the toxicity check (mostly the fifth day) where no day follows; animals may have died later. Schedule codes are those of the source, taken here to give the interval after Q, in days (D) or hours (H), and the number of doses after X. Some entries were tested several times; their values stand side by side, smallest first. Some schedule codes hold Z or #, which are not explained here. For survival time, this PubChem deposit counts one and a half times the control or more as active, and values a quarter to a half above the control carry no call in these data; other NCI protocols may use other cut-offs. Some T/C values carry the count of animals alive at the toxicity check (mostly the fifth day); without a count, all were alive then.

The subject of this experiment is CD2F1 mice, L1210 leukemia ip, survival T/C. Briefly: NCI In Vivo Anticancer Drug Screen. Data for tumor model L1210 Leukemia (intraperitoneal) in CD2F1 (CDF1) mice. Particulars: higher T/C = longer survival. How it is done:
The antitumor activity of compounds was measured in mice bearing transplantable tumors. Survival or tumor size were measured and the results are expressed as the measurement made in the treated group (T) divided by the measurement made in the vehicle treated control group (C). The tumor model used in this assay is L1210 Leukemia (intraperitoneal) in CD2F1 (CDF1) mice

[1] abbreviates: T/C endpoint: mean survival time, dose: 200.0 mg/kg/injection, schedule: Q04DX003 (ip), vehicle: saline with Tween-80.
[2] abbreviates: T/C endpoint: mean survival time, dose: 400.0 mg/kg/injection, schedule: Q04DX003 (ip), vehicle: saline with Tween-80.
The mark [3] stands for this setting: T/C endpoint: median survival time, dose: 25.0 mg/kg/injection, schedule: Q01DX005 (ip), vehicle: suspension in saline.
[4] abbreviates: T/C endpoint: median survival time, dose: 225.0 mg/kg/injection, schedule: Q04DX003 (ip), vehicle: saline.

As to `O=[N+]([O-])c1cc2ccccc2c(O)c1O`, the survivor count by setting is: (T/C endpoint: mean survival time, dose: 100.0 mg/kg/injection, schedule: Q01DX009 (ip), vehicle: saline with Tween-80) 1 of 6; under setting [1], 6 of 6; under setting [2], 0 of 6.
As to `COc1cccc2c1C(CO)N1C(C#N)C3CC(C(=O)O)C(C1C2)N3C` (stereo unspecified), the T/C is 134 % of control (T/C endpoint: median survival time, dose: 15.0 mg/kg/injection, schedule: Q01DX005 (ip), vehicle: suspension in saline); 130 % of control (T/C endpoint: median survival time, dose: 25.0 mg/kg/injection, schedule: Q01DX005 (ip), vehicle: saline); 130 % of control [5 of 6 alive] under setting [3]. The survivor count is, setting by setting: under setting [3], 6 of 6; (T/C endpoint: median survival time, dose: 41.67 mg/kg/injection, schedule: Q01DX005 (ip), vehicle: suspension in saline) 5 of 6; (T/C endpoint: median survival time, dose: 69.44 mg/kg/injection, schedule: Q01DX005 (ip), vehicle: suspension in saline) 2 of 6 and 4 of 6.
Regarding `COc1ccc2c(c1OC)CC1N(S(=O)(=O)c3ccc(C)cc3)CCC13c1ccccc1N(C(C)=O)C23` (stereo unspecified), where the note is “T/C endpoint: mean survival time, dose: 75.0 mg/kg/injection, schedule: Q01DX001 (ip), vehicle: other”, the survivor count was 6 of 6.
Take `O=c1oc(-c2ccc(Cl)cc2)nc2cc(Cl)ccc12`: the survivor count by setting is: under setting [1], 1 of 6; under setting [2], 0 of 6.
With `O=C[C@@H](CO)O[C@H](C=O)c1c[nH]c(=O)[nH]c1=O`, the T/C (T/C endpoint: median survival time, dose: 5.0 mg/kg/injection, schedule: Q01DX009 (ip), vehicle: saline) was 125 % of control; the T/C (T/C endpoint: median survival time, dose: 6.25 mg/kg/injection, schedule: Q01DX009 (ip), vehicle: water) is 126 % of control; the T/C (T/C endpoint: median survival time, dose: 10.0 mg/kg/injection, schedule: Q01DX009 (ip), vehicle: saline) is 134 % of control; the T/C (T/C endpoint: median survival time, dose: 20.0 mg/kg/injection, schedule: Q01DX009 (ip), vehicle: saline) was 139 % of control; the T/C (T/C endpoint: median survival time, dose: 25.0 mg/kg/injection, schedule: Q01DX009 (ip), vehicle: saline) was 135 % of control; the T/C (T/C endpoint: median survival time, dose: 25.0 mg/kg/injection, schedule: Q01DX009 (ip), vehicle: water) is 142 % of control. The T/C is, setting by setting: (T/C endpoint: median survival time, dose: 44.0 mg/kg/injection, schedule: Q04DX003 (ip), vehicle: saline) 131, 137, 150 % of control; (T/C endpoint: median survival time, dose: 44.5 mg/kg/injection, schedule: Q04DX003 (ip), vehicle: saline) 130 % of control; (T/C endpoint: median survival time, dose: 50.0 mg/kg/injection, schedule: Q01DX009 (ip), vehicle: water) 136 % of control; (T/C endpoint: median survival time, dose: 67.0 mg/kg/injection, schedule: Q04DX003 (ip), vehicle: saline) 140, 150, 152 % of control; (T/C endpoint: median survival time, dose: 80.0 mg/kg/injection, schedule: Q04DX003 (ip), vehicle: saline) 149 % of control [9 of 10 alive]; (T/C endpoint: median survival time, dose: 100.0 mg/kg/injection, schedule: Q04DX003 (ip), vehicle: saline, evaluated on day 30) 168, 172, 180 % of control. Moreover, the T/C was 185 % of control (T/C endpoint: median survival time, dose: 100.0 mg/kg/injection, schedule: Q04DX003 (ip), vehicle: saline, evaluated on day 60); 125 % of control (T/C endpoint: median survival time, dose: 120.0 mg/kg/injection, schedule: Q04DX003 (ip), vehicle: saline); 180, 189, 191, 206, 208 % of control (T/C endpoint: median survival time, dose: 150.0 mg/kg/injection, schedule: Q04DX003 (ip), vehicle: saline, evaluated on day 30); 180 and 222 % of control (T/C endpoint: median survival time, dose: 150.0 mg/kg/injection, schedule: Q04DX003 (ip), vehicle: saline, evaluated on day 60); 131 % of control [4 of 6 alive] under setting [4]. Further, the survivor count is, setting by setting: (T/C endpoint: median survival time, dose: 100.0 mg/kg/injection, schedule: Q01DX009 (ip), vehicle: saline) 3 of 6; (T/C endpoint: median survival time, dose: 200.0 mg/kg/injection, schedule: Q01DX009 (ip), vehicle: saline) 0 of 6; under setting [4], 0 of 6, 3 of 6, 5 of 6; (T/C endpoint: median survival time, dose: 250.0 mg/kg/injection, schedule: Q04DX003 (ip), vehicle: saline) 0 of 6; (T/C endpoint: median survival time, dose: 400.0 mg/kg/injection, schedule: Q01DX009 (ip), vehicle: saline) 0 of 6; (T/C endpoint: median survival time, dose: 416.7 mg/kg/injection, schedule: Q04DX003 (ip), vehicle: saline) 0 of 6.
On to `CCCCSCCN`, for which the survivor count (T/C endpoint: mean survival time, dose: 200.0 mg/kg/injection, schedule: Q04DX002 (ip), vehicle: saline with Tween-80) is reported as 0 of 3.
As to `C(=N\N=C\c1ccco1)/c1ccco1`, the survivor count under setting [2] is listed as 1 of 6.
For `c1cc2c(cc1CC1CCNC1)OCO2` (stereo unspecified), the survivor count is 0 of 6 (T/C endpoint: mean survival time, dose: 100.0 mg/kg/injection, schedule: Q01DX001 (ip), vehicle: saline sonified); 0 of 6 (T/C endpoint: mean survival time, dose: 200.0 mg/kg/injection, schedule: Q01DX001 (ip), vehicle: saline sonified); 0 of 6 (T/C endpoint: mean survival time, dose: 400.0 mg/kg/injection, schedule: Q01DX001 (ip), vehicle: saline sonified).
Turning to `O=C(NO)c1cc(Br)cc(Br)c1O`, the survivor count (T/C endpoint: mean survival time, dose: 800.0 mg/kg/injection, schedule: Q04DX002 (ip), vehicle: saline with Tween-80) is recorded as 0 of 3.
As for `O=S(=O)(O)O.[NH-]C1CCCCCC1[NH-].[Pt+2]` (stereo unspecified), the T/C runs as follows: (T/C endpoint: mean survival time, dose: 0.78 mg/kg/injection, schedule: Q01DX001 (ip), vehicle: dextrose) 129 % of control; (T/C endpoint: mean survival time, dose: 0.78 mg/kg/injection, schedule: Q04DX003 (ip), vehicle: dextrose) 127 and 131 % of control; (T/C endpoint: mean survival time, dose: 1.56 mg/kg/injection, schedule: Q01DX001 (ip), vehicle: dextrose) 142 % of control; (T/C endpoint: mean survival time, dose: 1.56 mg/kg/injection, schedule: Q04DX003 (ip), vehicle: dextrose) 137 % of control; (T/C endpoint: mean survival time, dose: 6.25 mg/kg/injection, schedule: Q04DX003 (ip), vehicle: dextrose) 125 % of control. Besides, the survivor count reads like this: (T/C endpoint: mean survival time, dose: 12.5 mg/kg/injection, schedule: Q01DX001 (ip), vehicle: dextrose) 1 of 6; (T/C endpoint: mean survival time, dose: 12.5 mg/kg/injection, schedule: Q04DX003 (ip), vehicle: dextrose) 3 of 6 and 6 of 6; (T/C endpoint: mean survival time, dose: 25.0 mg/kg/injection, schedule: Q01DX001 (ip), vehicle: dextrose) 0 of 6 and 1 of 6; (T/C endpoint: mean survival time, dose: 25.0 mg/kg/injection, schedule: Q04DX003 (ip), vehicle: dextrose) 0 of 6 and 4 of 6.
Take `BrC1c2cccc3cccc(c23)C1Br` (stereo unspecified): the survivor count (T/C endpoint: mean survival time, dose: 200.0 mg/kg/injection, schedule: Q01DX009 (ip), vehicle: saline with Tween-80) was 5 of 6.
Regarding `CC1(C)N=C(N)N=C(N)N1c1cccc(CCCCc2ccc(S(=O)(=O)F)cc2Cl)c1`, the survivor count is 3 of 6 (T/C endpoint: mean survival time, dose: 50.0 mg/kg/injection, schedule: Q01DX009 (ip), vehicle: saline sonified); 4 of 6 (T/C endpoint: mean survival time, dose: 100.0 mg/kg/injection, schedule: Q04DX003 (ip), vehicle: saline sonified); 1 of 6 (T/C endpoint: mean survival time, dose: 200.0 mg/kg/injection, schedule: Q04DX003 (ip), vehicle: saline sonified); 0 of 6 (T/C endpoint: mean survival time, dose: 400.0 mg/kg/injection, schedule: Q04DX003 (ip), vehicle: saline sonified).
As to `CN(C)c1ccc(/C=C/c2ccnc3ccccc23)cc1`, the survivor count (T/C endpoint: mean survival time, dose: 100.0 mg/kg/injection, schedule: Q01DX Z (ip), vehicle: saline) is listed as 6 of 6.
Take `Cc1cc2oc(=O)cc(O)c2c(=O)o1`: the survivor count (T/C endpoint: mean survival time, dose: 400.0 mg/kg/injection, schedule: Q01DX009 (ip), vehicle: saline with Tween-80) is given as 3 of 6.
Consider `CCC[CH2][Sn]1([CH2]CCC)[O]OC2(CCCCC2)[O]1`, for which the survivor count (T/C endpoint: mean survival time, dose: 10.0 mg/kg/injection, schedule: Q01DX009 (ip), vehicle: saline with Tween-80) is 2 of 6.
Regarding `Ic1sc(I)c(I)c1I`, the survivor count (T/C endpoint: mean survival time, dose: 100.0 mg/kg/injection, schedule: Q01DX001 (ip), vehicle: saline with Tween-80) is 0 of 3; the survivor count (T/C endpoint: mean survival time, dose: 200.0 mg/kg/injection, schedule: Q01DX001 (ip), vehicle: saline with Tween-80) is on record as 1 of 3; the survivor count (T/C endpoint: mean survival time, dose: 400.0 mg/kg/injection, schedule: Q01DX001 (ip), vehicle: saline with Tween-80) is on record as 0 of 3.

Values taken from PubChem BioAssay AID256 (DTP/NCI, 2004).
